According to patent US12662672B2, “Method of promoting survival and/or function of a motor neuron and related agents, uses and methods” (Agency for Science, Technology and Research, priority 2019, dated 2026):

Legend:
ALS MNs [1] = assay: Metabolic flux analysis, MitoStress assay (OCR) in ALS MNs; format: cell-based, human; conditions: day 31, C12 5 μM, Riluzole 5 μM, Edaravone 100 μM
Description: After dissociating with Accutase, cells were blocked with solution containing phosphate-buffered saline, 0.5% bovine serum albumin (BSA) and 2 mM EDTA. The cells were then incubated with CD171-APC antibody (Miltenyi Biotec) and PSA-NCAM-APC antibody (Miltenyi Biotec) for 10 mins at 4° C. After washing, the cells were then incubated with anti-APC microbeads for 15 minutes at 4° C. The cells were then washed twice and filtered prior to loading into the separation column (LS column) that was attached to a magnetic stand (all from Miltenyi Biotec). After three rounds of washing, the column was removed from the magnetic stand and labelled cells were eluted in culture media for replating.
Motor neuron cultures at day 27 were dissociated with Accutase and seeded at 2 million cells per well in a 6-well plate. At day 28, non-targeting siRNA or siRNAs were individually complexed with Lipofectamine RNAiMAX following manufacturer's instructions and added to the motor neuron cultures. For each well, 10 pmol of siRNAs and 8 μl of Lipofectamine RNAiMAX were used. Cells were either harvested for RNA and protein analyses, fixed for immunostaining or metabolic flux analysis were performed 3 days after siRNA transfection.

ALS MNs [2] = assay: Neuronal morphology (soma size, primary neurites) in ALS MNs; format: cell-based, human
Description: Cells were fixed in 4% paraformaldehyde for 15 minutes, permeabilized in 0.1% Triton X-100 for 15 minutes and blocked in buffer containing 5% FBS and 1% BSA for an hour at room temperature. Primary antibodies (Table S4) were diluted in blocking buffer and incubated overnight at 4° C. Cells were washed thrice in PBS. The respective secondary antibodies were diluted 1:1500 in blocking buffer and incubated at room temperature, in the dark, for 90 minutes. DAPI was used at 0.1 μg/ml to visualize cellular nuclei.
Images were acquired using the high content microscope Phenix (Perkin Elmer) using the 20× air objective. Image analyses including cell counts and intensity measurements were performed using Columbus (Perkin Elmer).
For primary neurites analysis, neuronal projections from the soma size was determined based on SMI-32 staining. For soma size analysis, cellular nuclei were identified by DAPI, and the cytoplasmic area surrounding the nucleus was determined based on SMI-32 staining. Soma size area was measured by image analysis software (ImageJ, NIH) based on the cytoplasmic area surrounding the nucleus, excluding neuronal projections.

## Nc1nc2ccc(OC(F)(F)F)cc2s1 [Riluzole]
ALS MNs [1]
  mitochondrial respiration / metabolic profile: did not show any significant changes
ALS MNs [2]; day 31
  number of primary neurites: no significant change
  soma size: no significant change
ALS MNs [2]; day 31, NAM 0.5 mM, C12 5 μM, Riluzole 5 μM, Edaravone 100 μM, siRNA
  neuronal morphologies: did not improve neuronal morphologies
